Laboratory results as given in patent US20200157147A1 (SEOUL NATIONAL UNIVERSITY HOSPITAL, published 2020).
No constants are given. Whether binding was seen depends on the method and setting. Binding seen in cells or lysates may run through a third protein. Some binding calls cover weakened binding; strength is not graded here.

By UniProt entry, the sequences of proteins in these tests, tags left out. Residues count along the entry.
UniProt Q9HD89, residues 19-108: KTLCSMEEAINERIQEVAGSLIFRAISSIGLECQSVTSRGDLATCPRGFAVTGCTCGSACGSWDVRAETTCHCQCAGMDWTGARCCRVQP

Biological target: mFc-hResistin (human) (UniProt Q9HD89)
Assay: competition in the Fc-bead pull-down from THP-1 lysate: the peptide blocks CAP1 from mFc-hResistin; western blot with a-CAP1(M30)

Binder | binding
PPPPGAAAAAVSTSSGSDES [pro2A (peptide of SEQ ID NO: 5)] | binds
GPPPPPVSTS [pep10 (peptide of SEQ ID NO: 1)] | binds
